T1: CBLL1 (human (endogenous in HUVEC)) (UniProt Q75N03)
T1 sequence: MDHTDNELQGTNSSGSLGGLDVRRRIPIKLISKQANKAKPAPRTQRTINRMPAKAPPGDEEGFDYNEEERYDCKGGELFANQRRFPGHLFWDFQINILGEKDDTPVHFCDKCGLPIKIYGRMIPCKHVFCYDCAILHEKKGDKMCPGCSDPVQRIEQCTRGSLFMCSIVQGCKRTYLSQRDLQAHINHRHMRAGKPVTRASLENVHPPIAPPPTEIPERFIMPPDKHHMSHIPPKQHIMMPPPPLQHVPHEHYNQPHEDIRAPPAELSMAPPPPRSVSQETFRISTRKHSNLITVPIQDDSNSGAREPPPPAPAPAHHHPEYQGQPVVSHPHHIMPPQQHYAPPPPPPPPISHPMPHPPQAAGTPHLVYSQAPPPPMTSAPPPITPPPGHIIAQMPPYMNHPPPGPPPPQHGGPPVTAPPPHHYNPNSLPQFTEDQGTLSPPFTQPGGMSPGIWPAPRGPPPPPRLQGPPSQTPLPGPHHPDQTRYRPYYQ

Sequences of proteins named here, by UniProt entry; tags and fusion partners are left off.
UniProt Q69YN4: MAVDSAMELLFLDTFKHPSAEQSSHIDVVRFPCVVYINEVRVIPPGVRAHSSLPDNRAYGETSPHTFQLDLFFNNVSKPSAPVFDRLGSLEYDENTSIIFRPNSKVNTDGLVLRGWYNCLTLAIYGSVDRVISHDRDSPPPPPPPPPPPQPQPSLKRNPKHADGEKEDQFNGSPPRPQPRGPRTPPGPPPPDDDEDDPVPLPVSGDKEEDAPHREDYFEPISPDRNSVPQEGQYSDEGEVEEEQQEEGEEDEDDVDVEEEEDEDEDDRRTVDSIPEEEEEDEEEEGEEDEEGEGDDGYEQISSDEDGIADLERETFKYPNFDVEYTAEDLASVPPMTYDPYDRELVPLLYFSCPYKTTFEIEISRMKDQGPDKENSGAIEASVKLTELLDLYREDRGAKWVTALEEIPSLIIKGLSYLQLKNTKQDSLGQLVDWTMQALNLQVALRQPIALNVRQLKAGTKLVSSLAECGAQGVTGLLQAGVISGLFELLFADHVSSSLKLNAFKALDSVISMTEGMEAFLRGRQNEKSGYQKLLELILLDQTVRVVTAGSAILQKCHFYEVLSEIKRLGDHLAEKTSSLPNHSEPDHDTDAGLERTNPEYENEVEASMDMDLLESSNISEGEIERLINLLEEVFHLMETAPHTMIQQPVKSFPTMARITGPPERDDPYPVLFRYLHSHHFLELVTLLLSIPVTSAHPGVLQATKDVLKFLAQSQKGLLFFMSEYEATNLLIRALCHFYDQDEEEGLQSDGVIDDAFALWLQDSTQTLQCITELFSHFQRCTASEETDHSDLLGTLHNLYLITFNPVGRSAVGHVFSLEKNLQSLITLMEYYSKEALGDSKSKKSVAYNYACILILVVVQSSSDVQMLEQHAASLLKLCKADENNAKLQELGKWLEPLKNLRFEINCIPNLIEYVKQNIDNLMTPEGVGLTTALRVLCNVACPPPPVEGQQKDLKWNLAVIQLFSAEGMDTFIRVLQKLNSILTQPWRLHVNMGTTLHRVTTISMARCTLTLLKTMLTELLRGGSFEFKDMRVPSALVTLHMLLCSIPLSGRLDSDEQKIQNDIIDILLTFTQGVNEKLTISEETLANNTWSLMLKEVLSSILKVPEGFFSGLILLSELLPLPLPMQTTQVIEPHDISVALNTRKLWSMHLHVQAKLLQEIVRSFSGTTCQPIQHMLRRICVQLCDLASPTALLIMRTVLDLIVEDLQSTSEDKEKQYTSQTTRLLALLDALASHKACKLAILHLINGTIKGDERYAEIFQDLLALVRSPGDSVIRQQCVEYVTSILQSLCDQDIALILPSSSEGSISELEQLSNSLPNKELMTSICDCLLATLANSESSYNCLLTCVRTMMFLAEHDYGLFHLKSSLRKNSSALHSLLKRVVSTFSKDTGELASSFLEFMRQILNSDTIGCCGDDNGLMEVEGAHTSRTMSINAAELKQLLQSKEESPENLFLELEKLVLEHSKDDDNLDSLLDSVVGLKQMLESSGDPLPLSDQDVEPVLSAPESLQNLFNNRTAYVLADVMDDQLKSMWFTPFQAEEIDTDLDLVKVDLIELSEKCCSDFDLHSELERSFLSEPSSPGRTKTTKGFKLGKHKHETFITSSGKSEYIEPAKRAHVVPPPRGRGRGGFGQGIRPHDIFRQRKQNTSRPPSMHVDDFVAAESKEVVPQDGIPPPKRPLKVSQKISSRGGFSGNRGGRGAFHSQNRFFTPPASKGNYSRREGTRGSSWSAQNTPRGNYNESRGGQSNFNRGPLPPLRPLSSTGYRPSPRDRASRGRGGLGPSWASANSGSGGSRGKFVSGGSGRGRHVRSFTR
UniProt P51116: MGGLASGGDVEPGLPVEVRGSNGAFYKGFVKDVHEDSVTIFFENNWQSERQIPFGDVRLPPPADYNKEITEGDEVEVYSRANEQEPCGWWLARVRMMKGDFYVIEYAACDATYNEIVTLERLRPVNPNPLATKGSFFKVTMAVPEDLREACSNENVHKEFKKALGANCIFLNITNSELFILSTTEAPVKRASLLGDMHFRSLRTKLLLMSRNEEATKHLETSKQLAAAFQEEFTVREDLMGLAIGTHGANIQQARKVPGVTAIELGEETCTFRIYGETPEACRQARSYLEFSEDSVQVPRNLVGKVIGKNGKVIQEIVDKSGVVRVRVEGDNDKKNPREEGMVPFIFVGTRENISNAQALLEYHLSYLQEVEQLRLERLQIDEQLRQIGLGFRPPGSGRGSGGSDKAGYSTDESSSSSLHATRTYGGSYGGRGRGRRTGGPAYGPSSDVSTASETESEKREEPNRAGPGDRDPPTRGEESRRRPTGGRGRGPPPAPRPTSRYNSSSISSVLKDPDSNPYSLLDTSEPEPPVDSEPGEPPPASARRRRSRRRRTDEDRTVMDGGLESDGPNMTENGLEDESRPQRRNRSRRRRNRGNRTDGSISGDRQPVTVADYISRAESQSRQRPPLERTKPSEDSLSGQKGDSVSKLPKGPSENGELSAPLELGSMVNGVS
UniProt Q9NYF8: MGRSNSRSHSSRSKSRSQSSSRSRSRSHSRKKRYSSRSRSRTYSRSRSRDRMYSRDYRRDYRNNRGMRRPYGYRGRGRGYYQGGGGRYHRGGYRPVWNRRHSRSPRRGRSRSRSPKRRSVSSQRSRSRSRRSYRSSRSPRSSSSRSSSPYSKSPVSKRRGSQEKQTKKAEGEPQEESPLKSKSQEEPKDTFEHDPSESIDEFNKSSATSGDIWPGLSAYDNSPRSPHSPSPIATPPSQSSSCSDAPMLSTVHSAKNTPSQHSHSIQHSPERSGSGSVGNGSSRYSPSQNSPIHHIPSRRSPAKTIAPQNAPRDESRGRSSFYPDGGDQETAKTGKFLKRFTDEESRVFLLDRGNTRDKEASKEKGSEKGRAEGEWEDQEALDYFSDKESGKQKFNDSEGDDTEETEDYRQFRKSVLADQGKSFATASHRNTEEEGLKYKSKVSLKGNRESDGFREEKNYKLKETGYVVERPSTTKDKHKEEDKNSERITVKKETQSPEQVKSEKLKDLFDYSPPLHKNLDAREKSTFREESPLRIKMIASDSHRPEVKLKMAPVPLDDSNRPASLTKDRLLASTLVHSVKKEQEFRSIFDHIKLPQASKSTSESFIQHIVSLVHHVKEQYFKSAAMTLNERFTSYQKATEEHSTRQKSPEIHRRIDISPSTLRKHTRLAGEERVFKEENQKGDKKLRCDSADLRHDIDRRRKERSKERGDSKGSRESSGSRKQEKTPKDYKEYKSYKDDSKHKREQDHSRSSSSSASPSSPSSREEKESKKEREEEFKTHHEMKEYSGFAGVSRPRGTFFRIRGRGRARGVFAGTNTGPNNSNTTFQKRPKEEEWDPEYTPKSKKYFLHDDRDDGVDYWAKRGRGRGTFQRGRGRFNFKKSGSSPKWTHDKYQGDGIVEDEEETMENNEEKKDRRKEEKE
UniProt Q86U44: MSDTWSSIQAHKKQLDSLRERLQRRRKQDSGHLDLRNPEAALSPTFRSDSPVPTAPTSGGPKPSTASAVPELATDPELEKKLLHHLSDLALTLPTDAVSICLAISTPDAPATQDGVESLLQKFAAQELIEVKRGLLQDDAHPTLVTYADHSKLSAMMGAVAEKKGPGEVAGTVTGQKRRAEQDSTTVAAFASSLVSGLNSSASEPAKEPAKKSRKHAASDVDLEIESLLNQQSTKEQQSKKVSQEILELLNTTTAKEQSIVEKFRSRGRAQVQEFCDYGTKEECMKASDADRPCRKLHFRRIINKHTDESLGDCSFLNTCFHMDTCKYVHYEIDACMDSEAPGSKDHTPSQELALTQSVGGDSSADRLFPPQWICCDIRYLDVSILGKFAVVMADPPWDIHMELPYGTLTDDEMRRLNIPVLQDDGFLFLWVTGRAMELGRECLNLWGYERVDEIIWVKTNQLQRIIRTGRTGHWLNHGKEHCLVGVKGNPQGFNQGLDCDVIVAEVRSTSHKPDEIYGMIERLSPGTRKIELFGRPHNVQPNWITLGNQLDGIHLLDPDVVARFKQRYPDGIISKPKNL
UniProt O00571: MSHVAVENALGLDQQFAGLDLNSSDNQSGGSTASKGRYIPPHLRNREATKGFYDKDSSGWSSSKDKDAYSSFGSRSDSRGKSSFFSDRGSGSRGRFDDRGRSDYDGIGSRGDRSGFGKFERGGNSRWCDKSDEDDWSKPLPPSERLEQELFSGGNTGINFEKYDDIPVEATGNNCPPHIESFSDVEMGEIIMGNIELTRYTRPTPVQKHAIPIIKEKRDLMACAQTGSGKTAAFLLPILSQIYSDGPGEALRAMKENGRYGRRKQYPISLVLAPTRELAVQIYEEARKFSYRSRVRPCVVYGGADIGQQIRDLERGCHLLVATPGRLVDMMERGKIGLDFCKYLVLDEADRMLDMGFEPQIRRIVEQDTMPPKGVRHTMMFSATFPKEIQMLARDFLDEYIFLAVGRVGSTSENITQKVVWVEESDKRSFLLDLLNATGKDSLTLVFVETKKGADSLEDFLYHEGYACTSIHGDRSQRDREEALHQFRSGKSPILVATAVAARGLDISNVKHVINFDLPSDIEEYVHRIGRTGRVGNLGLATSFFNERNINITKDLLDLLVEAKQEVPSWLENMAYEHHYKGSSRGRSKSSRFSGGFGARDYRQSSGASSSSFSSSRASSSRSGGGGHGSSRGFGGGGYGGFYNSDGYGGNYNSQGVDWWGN
UniProt P51114: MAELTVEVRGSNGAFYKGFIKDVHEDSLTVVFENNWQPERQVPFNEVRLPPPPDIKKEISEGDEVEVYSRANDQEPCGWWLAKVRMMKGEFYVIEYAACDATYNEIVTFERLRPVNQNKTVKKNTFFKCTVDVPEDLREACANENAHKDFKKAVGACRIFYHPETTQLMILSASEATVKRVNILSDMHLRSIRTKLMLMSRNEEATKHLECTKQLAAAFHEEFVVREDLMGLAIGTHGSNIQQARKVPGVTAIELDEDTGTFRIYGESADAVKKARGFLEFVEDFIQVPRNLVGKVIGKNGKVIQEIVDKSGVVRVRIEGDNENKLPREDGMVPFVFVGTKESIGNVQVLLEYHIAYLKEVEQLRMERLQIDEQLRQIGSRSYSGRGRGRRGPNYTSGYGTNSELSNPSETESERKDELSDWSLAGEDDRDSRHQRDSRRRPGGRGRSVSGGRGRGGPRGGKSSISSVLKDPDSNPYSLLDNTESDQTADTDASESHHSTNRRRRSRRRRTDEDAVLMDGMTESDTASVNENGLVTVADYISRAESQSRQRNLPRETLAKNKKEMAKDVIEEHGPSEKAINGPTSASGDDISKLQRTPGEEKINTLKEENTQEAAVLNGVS

B1: symplekin (protein, UniProt Q92797 1-1274)
chain: MASGSGDSVTRRSVASQFFTQEEGPGIDGMTTSERVVDLLNQAALITNDSKITVLKQVQELIINKDPTLLDNFLDEIIAFQADKSIEVRKFVIGFIEEACKRDIELLLKLIANLNMLLRDENVNVVKKAILTMTQLYKVALQWMVKSRVISELQEACWDMVSAMAGDIILLLDSDNDGIRTHAIKFVEGLIVTLSPRMADSEIPRRQEHDISLDRIPRDHPYIQYNVLWEEGKAALEQLLKFMVHPAISSINLTTALGSLANIARQRPMFMSEVIQAYETLHANLPPTLAKSQVSSVRKNLKLHLLSVLKHPASLEFQAQITTLLVDLGTPQAEIARNMPSSKDTRKRPRDDSDSTLKKMKLEPNLGEDDEDKDLEPGPSGTSKASAQISGQSDTDITAEFLQPLLTPDNVANLVLISMVYLPEAMPASFQAIYTPVESAGTEAQIKHLARLMATQMTAAGLGPGVEQTKQCKEEPKEEKVVKTESVLIKRRLSAQGQAISVVGSLSSMSPLEEEAPQAKRRPEPIIPVTQPRLAGAGGRKKIFRLSDVLKPLTDAQVEAMKLGAVKRILRAEKAVACSGAAQVRIKILASLVTQFNSGLKAEVLSFILEDVRARLDLAFAWLYQEYNAYLAAGASGSLDKYEDCLIRLLSGLQEKPDQKDGIFTKVVLEAPLITESALEVVRKYCEDESRTYLGMSTLRDLIFKRPSRQFQYLHVLLDLSSHEKDKVRSQALLFIKRMYEKEQLREYVEKFALNYLQLLVHPNPPSVLFGADKDTEVAAPWTEETVKQCLYLYLALLPQNHKLIHELAAVYTEAIADIKRTVLRVIEQPIRGMGMNSPELLLLVENCPKGAETLVTRCLHSLTDKVPPSPELVKRVRDLYHKRLPDVRFLIPVLNGLEKKEVIQALPKLIKLNPIVVKEVFNRLLGTQHGEGNSALSPLNPGELLIALHNIDSVKCDMKSIIKATNLCFAERNVYTSEVLAVVMQQLMEQSPLPMLLMRTVIQSLTMYPRLGGFVMNILSRLIMKQVWKYPKVWEGFIKCCQRTKPQSFQVILQLPPQQLGAVFDKCPELREPLLAHVRSFTPHQQAHIPNSIMTILEASGKQEPEAKEAPAGPLEEDDLEPLTLAPAPAPRPPQDLIGLRLAQEKALKRQLEEEQKLKPGGVGAPSSSSPSPSPSARPGPPPSEEAMDFREEGPECETPGIFISMDDDSGLTEAALLDSSLEGPLPKETAAGGLTLKEERSPQTLAPVGEDAMKTPSPAAEDAREPEAKGNS
B2: FIP1 (protein, UniProt Q6UN15 1-594)
chain: MSAGEVERLVSELSGGTGGDEEEEWLYGGPWDVHVHSDLAKDLDENEVERPEEENASANPPSGIEDETAENGVPKPKVTETEDDSDSDSDDDEDDVHVTIGDIKTGAPQYGSYGTAPVNLNIKTGGRVYGTTGTKVKGVDLDAPGSINGVPLLEVDLDSFEDKPWRKPGADLSDYFNYGFNEDTWKAYCEKQKRIRMGLEVIPVTSTTNKITAEDCTMEVTPGAEIQDGRFNLFKVQQGRTGNSEKETALPSTKAEFTSPPSLFKTGLPPSRNSTSSQSQTSTASRKANSSVGKWQDRYGRAESPDLRRLPGAIDVIGQTITISRVEGRRRANENSNIQVLSERSATEVDNNFSKPPPFFPPGAPPTHLPPPPFLPPPPTVSTAPPLIPPPGFPPPPGAPPPSLIPTIESGHSSGYDSRSARAFPYGNVAFPHLPGSAPSWPSLVDTSKQWDYYARREKDRDRERDRDRERDRDRDRERERTRERERERDHSPTPSVFNSDEERYRYREYAERGYERHRASREKEERHRERRHREKEETRHKSSRSNSRRRHESEEGDSHRRHKHKKSKRSKEGKEAGSEPAPEQESTEATPAE
B3: THRAP3 (protein, UniProt Q9Y2W1 1-955)
chain: MSKTNKSKSGSRSSRSRSASRSRSRSFSKSRSRSRSLSRSRKRRLSSRSRSRSYSPAHNRERNHPRVYQNRDFRGHNRGYRRPYYFRGRNRGFYPWGQYNRGGYGNYRSNWQNYRQAYSPRRGRSRSRSPKRRSPSPRSRSHSRNSDKSSSDRSRRSSSSRSSSNHSRVESSKRKSAKEKKSSSKDSRPSQAAGDNQGDEAKEQTFSGGTSQDTKASESSKPWPDATYGTGSASRASAVSELSPRERSPALKSPLQSVVVRRRSPRPSPVPKPSPPLSSTSQMGSTLPSGAGYQSGTHQGQFDHGSGSLSPSKKSPVGKSPPSTGSTYGSSQKEESAASGGAAYTKRYLEEQKTENGKDKEQKQTNTDKEKIKEKGSFSDTGLGDGKMKSDSFAPKTDSEKPFRGSQSPKRYKLRDDFEKKMADFHKEEMDDQDKDKAKGRKESEFDDEPKFMSKVIGANKNQEEEKSGKWEGLVYAPPGKEKQRKTEELEEESFPERSKKEDRGKRSEGGHRGFVPEKNFRVTAYKAVQEKSSSPPPRKTSESRDKLGAKGDFPTGKSSFSITREAQVNVRMDSFDEDLARPSGLLAQERKLCRDLVHSNKKEQEFRSIFQHIQSAQSQRSPSELFAQHIVTIVHHVKEHHFGSSGMTLHERFTKYLKRGTEQEAAKNKKSPEIHRRIDISPSTFRKHGLAHDEMKSPREPGYKAEGKYKDDPVDLRLDIERRKKHKERDLKRGKSRESVDSRDSSHSRERSAEKTEKTHKGSKKQKKHRRARDRSRSSSSSSQSSHSYKAEEYTEETEEREESTTGFDKSRLGTKDFVGPSERGGGRARGTFQFRARGRGWGRGNYSGNNNNNSNNDFQKRNREEEWDPEYTPKSKKYYLHDDREGEGSDKWVSRGRGRGAFPRGRGRFMFRKSSTSPKWAHDKFSGEEGEIEDDESGTENREEKDNIQPTTE
B4: polymerase delta-interacting protein 3 (protein, UniProt Q9BY77 1-421)
chain: MADISLDELIRKRGAAAKGRLNARPGVGGVRSRVGIQQGLLSQSTRTATFQQRFDARQKIGLSDARLKLGVKDAREKLLQKDARFRIKGKVQDAREMLNSRKQQTTVPQKPRQVADAREKISLKRSSPAAFINPPIGTVTPALKLTKTIQVPQQKAMAPLHPHPAGMRINVVNNHQAKQNLYDLDEDDDGIASVPTKQMKFAASGGFLHHMAGLSSSKLSMSKALPLTKVVQNDAYTAPALPSSIRTKALTNMSRTLVNKEEPPKELPAAEPVLSPLEGTKMTVNNLHPRVTEEDIVELFCVCGALKRARLVHPGVAEVVFVKKDDAITAYKKYNNRCLDGQPMKCNLHMNGNVITSDQPILLRLSDSPSMKKESELPRRVNSASSSNPPAEVDPDTILKALFKSSGASVTTQPTEFKIKL

Results are given in words; binding and its absence hold for the method and conditions named. In cells and extracts the contact can be indirect. Here binding means that the protein was enriched with, or labelled near, the bait; the list need not be complete.

This test concerns the target T1, CBLL1 (human (endogenous in HUVEC)). As to the kind of experiment: affinity purification with mass spectrometry; endogenous CBLL1 immunopurified from HUVEC whole cell lysates (lysis buffer with 250 mM KCl, 0.1% NP-40, Benzonase) with anti-CBLL1 monoclonal antibodies cross-linked to Dynabeads Protein G, 4 h at 4 °C; washed with 0.5 M KCl-HEGN and 0.1 M KCl-HEGN; shotgun LC/MS/MS; negative control anti-gp64 antibody.
In the case of VIRMA (from UniProt Q69YN4 1-1812), the binding entry is “binds”. The value for FXR2 (from UniProt P51116 1-673) was “binds”; that for BCLAF1 (from UniProt Q9NYF8 1-920) was “binds”; that for METTL3 (from UniProt Q86U44 1-580) was “binds”. The value for ZC3H13 (from UniProt Q5T200 1-1668) was “binds”. The entry for DDX3X (from UniProt O00571 1-662) is “binds”; for “Fragile X mental retardation syndrome-related protein 1 (from UniProt P51114 1-621)” it is “binds”; for B1 it is “binds”. Take B2: the binding result is “binds”. Take B3: the binding entry is “binds”. Consider B4, for which the binding result was “binds”.
